Record: PubChem BioAssay AID504744 (Drosophila RNAi Screening Center, 2011)
In all, the deposit lists about 23,000 reagents; this is an unselected part of those with a known target gene and a result. Over the whole deposit, 98 (0.43%) got an active call. 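Only hit calls are given; the phospho-dAkt signals, z-scores and hit direction were not deposited.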 A plus sign joins genes that one reagent is predicted to hit. Reagent sequences are not shown.

Test: 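Identify dsRNAs that increase or decrease phospho-dAkt after insulin treatment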 (primary screen)
System: Drosophila Kc167 cells
Reagents: long dsRNA against Drosophila genes, 250 ng dsRNA per well of a 384-well plate
Time to read-out: 3 days of knock-down, then overnight serum-free starvation before stimulation
Challenge: bovine insulin at 387 nM for 10 minutes after 12 h without serum
Read-out: 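In-cell antibody fluorescence for phospho-dAkt in each well over DNA-dye signal, with log2 residuals expressed as z-scores adjusted for cell count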
Active means: 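Under insulin, a gene counts as a hit if the average z-score of two replicates lies above 2.5 or below -2.5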

gene	DRSC id	outcome
CG8854	DRSC07288	inactive
CG15611	DRSC06563	inactive
CG15611	DRSC06564	inactive
moody	DRSC18515	inactive
CG12609	DRSC19473	inactive
EMC5	DRSC02469	inactive
twr	DRSC12491	inactive
fos28F (retired record)	DRSC03391	inactive
snama	DRSC04049	inactive
Rbp1-like	DRSC19828	inactive
Rbp1-like	DRSC22075	inactive
Dop2R	DRSC20683	inactive
Dop2R	DRSC20686	inactive
CG5478	DRSC15814	inactive
CG3294	DRSC00590	inactive
CG15258	DRSC02478	inactive
Phf5a	DRSC03261	inactive
lambdaTry	DRSC06137	inactive
Rab9D + Rab9Fa + Rab9E	DRSC19853	inactive
GstE12	DRSC04047	inactive
Su(dx)	DRSC00791	inactive
dally	DRSC08954	inactive
dally	DRSC11338	inactive
CG11134	DRSC19384	inactive
CG15211	DRSC19657	inactive
CG31275	DRSC16919	inactive
GstO2	DRSC10691	inactive
CG31145	DRSC13634	inactive
CG31145	DRSC14206	inactive
CG31145	DRSC14670	inactive
CG31145	DRSC14671	inactive
Oatp33Eb	DRSC02955	inactive
CG33489	DRSC10588	inactive
rdgA	DRSC17863	inactive
rdgA	DRSC18036	inactive
rdgA	DRSC18827	inactive
PH4alphaMP	DRSC17031	inactive
elgi	DRSC10242	inactive
Mal-B1	DRSC02416	inactive
VhaAC39-2	DRSC15609	inactive
Sp1	DRSC17622	inactive
Sp1	DRSC18717	inactive
Nup37	DRSC14419	inactive
CG9514	DRSC20190	inactive
CG9514	DRSC20191	inactive
RYBP	DRSC04117	inactive
CG30114	DRSC05707	inactive
asrij	DRSC04175	inactive
Ugt36F1	DRSC02601	inactive
CG13067	DRSC09950	inactive
Rbp6	DRSC09462	inactive
Rbp6	DRSC09464	inactive
Rbp6	DRSC10072	inactive
Rbp6	DRSC10073	inactive
Rbp6	DRSC10662	inactive
Hers	DRSC19429	inactive
Hers	DRSC19676	inactive
CG33140	DRSC06030	inactive
Or19b + Or19a	DRSC22604	inactive
CG3823	DRSC18325	inactive
CG11357	DRSC08183	inactive
Proc-R	DRSC18410	inactive
phyl	DRSC07663	inactive
SdhA	DRSC07547	inactive
CR40354	DRSC20923	inactive
CG12104	DRSC08254	inactive
CG31468	DRSC13637	inactive
CG3430	DRSC02713	inactive
CG9849	DRSC04573	inactive
CG34327	DRSC19517	inactive
CG34327	DRSC22380	inactive
Ppn	DRSC15328	inactive
CG30016	DRSC05242	inactive
lwr	DRSC00828	inactive
BBS8	DRSC00360	inactive
Trim9	DRSC02242	inactive
CG7900	DRSC16336	inactive
CG7900	DRSC21343	inactive
resilin	DRSC05627	inactive
resilin	DRSC06595	inactive
CG10324	DRSC14230	inactive
CG5762	DRSC15869	inactive
spin	DRSC07176	inactive
spin	DRSC22271	inactive
CG12661	DRSC17864	inactive
l(3)neo38	DRSC14946	inactive
l(3)neo38	DRSC16138	inactive
Rsph4a	DRSC04338	inactive
Kaz-m1	DRSC16990	inactive
CG8086	DRSC03078	inactive
CG8086	DRSC03079	inactive
CG13539	DRSC04181	inactive
CG8245	DRSC04901	inactive
Phm	DRSC04639	inactive
CG33543	DRSC00384	inactive
CG33543	DRSC00385	inactive
CG2006	DRSC15412	inactive
CG13223	DRSC06344	inactive
CG42820 + CG42819	DRSC02264	inactive
CG42820 + CG42819	DRSC02265	inactive
Setd3	DRSC17840	inactive
Setd3	DRSC18269	inactive
lilli	DRSC00708	inactive
NdufA3	DRSC18431	inactive
att-ORFB + DPCoAC	DRSC15556	inactive
Acn	DRSC02062	inactive
CG7655	DRSC16275	inactive
CG13482	DRSC10024	inactive
Prosbeta4	DRSC02603	inactive
d4	DRSC04881	inactive
d4	DRSC22674	inactive
CG11999	DRSC12185	inactive
Edem2	DRSC02877	inactive
msd5	DRSC08560	inactive
CG2211	DRSC08559	inactive
org-1	DRSC18810	inactive
CG15394	DRSC00408	inactive
CG15914	DRSC19739	inactive
DAAM	DRSC18479	inactive
Targ3	DRSC11471	inactive
CG14931	DRSC02413	inactive
CG7044	DRSC16180	inactive
CG3719	DRSC18493	inactive
CG12057	DRSC17797	inactive
Prosalpha1R + Prosalpha1	DRSC07515	inactive
Ets98B	DRSC16666	inactive
CG18477 + CG31780	DRSC01955	inactive
Zip42C.1	DRSC05003	inactive
nero	DRSC15432	inactive
CG42458	DRSC10335	inactive
Ir11a	DRSC19699	inactive
Pcyt2	DRSC08531	inactive
MICU1	DRSC02752	inactive
CG6553	DRSC07002	inactive
zetaCOP	DRSC11412	active
Gr64c	DRSC08445	inactive
CG14186	DRSC10185	inactive
CG31821	DRSC22162	inactive
CG8301	DRSC16405	inactive
CG10587	DRSC11627	inactive
gce	DRSC19613	inactive
gce	DRSC19974	inactive
Tom20	DRSC10899	inactive
GluRIB + CG42509 (retired record)	DRSC10258	inactive
GluRIB + CG42509 (retired record)	DRSC11177	inactive
Tsc1	DRSC16890	active
unc-4	DRSC20381	inactive
unc-4	DRSC22074	inactive
CG14621	DRSC20635	inactive
qkr58E-3	DRSC04711	inactive
IFT20 + CG10395	DRSC22660	inactive
CG13707	DRSC08316	inactive
CG33958	DRSC06472	inactive
CG33958	DRSC06944	inactive
Ucp4B	DRSC02665	inactive
cic	DRSC14276	inactive
cic	DRSC15708	inactive
cic	DRSC16918	inactive
cic	DRSC21243	inactive

Not a retest: an excerpt of the list.
gene	DRSC id	outcome
Hers	DRSC19676	inactive
CG33140	DRSC06030	inactive
Or19b + Or19a	DRSC22604	inactive
CG3823	DRSC18325	inactive
CG11357	DRSC08183	inactive
Proc-R	DRSC18410	inactive
phyl	DRSC07663	inactive
SdhA	DRSC07547	inactive
CR40354	DRSC20923	inactive
CG12104	DRSC08254	inactive
CG31468	DRSC13637	inactive
CG3430	DRSC02713	inactive
CG9849	DRSC04573	inactive
CG34327	DRSC19517	inactive
CG34327	DRSC22380	inactive
Ppn	DRSC15328	inactive
CG30016	DRSC05242	inactive
lwr	DRSC00828	inactive
BBS8	DRSC00360	inactive
Trim9	DRSC02242	inactive
CG7900	DRSC16336	inactive
CG7900	DRSC21343	inactive
resilin	DRSC05627	inactive
